Reference: patent US20050176118A1, “Esterases with lipase activity” (priority 2002, published 2005)
The name of at least one read-out is uncertain.

Legend:
Assay type in all cases: biochemical
[1] = Permethrin hydrolysis, radiometric partition assay (acid-labelled substrate); settings: faster-hydrolysed enantiomer of the pair; substrate 0.5 μM; 0.1M phosphate pH 7.0, 30°; baculovirus expressed enzyme
[2] = Hydrolysis of dibromovinyl analogue of permethrin, TLC based assay (alcohol-labelled)
[3] = Esterase activity with α-naphthyl acetate; settings: substrate α-naphthyl acetate
[4] = Hydrolysis of dibromovinyl analogue of permethrin, TLC based assay (alcohol-labelled); remark: listed apart in the source
[5] = Permethrin hydrolysis, radiometric partition assay (acid-labelled substrate); settings: faster-hydrolysed enantiomer of the pair; substrate 0.5 μM; 0.1M phosphate pH 7.0, 30°; baculovirus expressed enzyme; remark: listed apart in the source
[6] = Hydrolysis of Type II pyrethroid, chloroform-methanol extraction assay
Experimental: Since the TLC assay is more protracted than the chloroform-methanol extraction procedure, the latter (as described above for acid-labelled pyrethroids) was adopted to measure the 3-phenoxbenzoate anion produced from these substrates.
For all assays the molar amount of product formed was calculated from the known specific activity of the radiolabelled substrate. […] Assays at concentrations greater than 0.5 μM, which approximates the published aqueous solubility of permethrin, gave erratic results so precluding the measurement of Km and kcat. […] Assay conditions were therefore adjusted to measure the hydrolysis of the more-readily hydrolysed enantiomer in each pair. […] The same considerations about substrate solubility and proportionality of response to its concentration were assumed for all enzymes and substrates.
The specificity constant (ie kcat/Km) can therefore be calculated from the above equation using the initial hydrolysis rate (pmol/min, calculated from the known specific activity of the radiolabelled substrate) and the concentrations of substrate and enzyme in the assay. The diffusion-limited maximum value for a specificity constant is 10^8-10^9 M^−1sec^−1 (Stryer, 1981).

B1: E3WT: wild-type Lucilia cuprina E3 α-carboxylesterase (SEQ ID NO:1), baculovirus expressed (protein, listed as Lucilia cuprina)
chain: MNFNVSLMEKLKWKIKCIENKFLNYRLTTNETVVAETEYGKVKGVKRLTVYDDSYYSFEGIPYAQPPVGELRFKAPQRPTPWDGVRDCCNHKDKSVQVDFITGKVCGSEDCLYLSVYTNNLNPETKRPVLVYIHGGGFIIGENHRDMYGPDYFIKKDVVLINIQYRLGALGFLSLNSEDLNVPGNAGLKDQVMALRWIKNNCANFGGNPDNITVFGESAGAASTHYMMLTEQTRGLFHRGILMSGNAICPWANTQCQHRAFTLAKLAGYKGEDNDKDVLEFLMKAKPQDLIKLEEKVLTLEERTNKVMFPFGPTVEPYQTADCVLPKHPREMVKTAWGNSIPTMMGNTSYEGLFFTSILKQMPMLVKELETCVNFVPSELADAERTAPETLEMGAKIKKAHVTGETPTADNFMDLCSHIYFWFPMHRLLQLRFNHTSGTPVYLYRFDFDSEDLINPYRIMRSGRGVKGVSHADELTYFFWNQLAKRMPKESREYKTIERMTGIWIQFATTGNPYSNEIEGMENVSWDPIKKSDEVYKCLNISDELKMIDVPEMDKIKQWESMFEKHRDLF
Specificity Constant (kcat/Km) 1S/1R trans-permethrin [1]: 90 000 M^−1sec^−1
Specificity Constant (kcat/Km) NRDC157 1R cis [2]: 630 M⁻¹ s⁻¹
α-NA activity kcat/Km [3]: 3,500,000 M^−1sec^−1
Specificity Constant (kcat/Km) NRDC157 1S cis [4]: 4 700 M^−1sec^−1
Specificity Constant (kcat/Km) 1S/1R cis-permethrin [5]: 3 400 M^−1sec^−1

B2: EST23WT: wild-type Drosophila melanogaster EST23 α-carboxylesterase (SEQ ID NO:2) (protein)
chain: MNKNLGFVERLRGRLKTIEHKVQQYRQSTNETVVADTEYGQVRGIKRLSLYDVPYFSFEGIPYAQPPVGELRFKAPQRPIPWEGVRDCSQPKDKAVQVQFVFDKVEGSEDCLYLNVYTNNVKPDKARPVMVWIHGGGFIIGEANREWYGPDYFMKEDVVLVTIQYRLGALGFMSLKSPELNVPGNAGLKDQVLALKWIKNNCASFGGDPNCITVFGESAGGASTHYMMLTDQTQGLFHRGILQSGSAICPWAYNGDITHNPYRIAKLVGYKGEDNDKDVLEFLQNVKAKDLIRVEENVLTLEERMNKIMFRFGPSLEPFSTPECVISKPPKEMMKTAWSNSIPMFIGNTSYEGLLWVPEVKLMPQVLQQLDAGTPFIPKELLATEPSKEKLDSWSAQIRDVHRTGSESTPDNYMDLCSIYYFVFPALRVVHSRHAYAAGAPVYFYRYDFDSEELIFPYRIMRMGRGVKGVSHADDLSYQFSSLLARRLPKESREYRNIERTVGIWTQFAATGNPYSEKINGMDTLTIDPVRKSDEVIKCLNISDDLKFIDLPEWPKLKVWESLYDDNKDLLF
modifications: Drosophila melanogaster
Specificity Constant (kcat/Km) 1S cis αR deltamethrin [6]: 450 M⁻¹ s⁻¹
Specificity Constant (kcat/Km) 1S cis αS deltamethrin [6]: 750 M⁻¹ s⁻¹
Specificity Constant (kcat/Km) 1S/1R trans-permethrin [1]: 21 000 M^−1sec^−1
Specificity Constant (kcat/Km) NRDC157 1R cis [2]: 330 M⁻¹ s⁻¹
α-NA activity kcat/Km [3]: 3,400,000 M^−1sec^−1
Specificity Constant (kcat/Km) NRDC157 1S cis [4]: 990 M⁻¹ s⁻¹
Specificity Constant (kcat/Km) 1S/1R cis-permethrin [5]: 890 M⁻¹ s⁻¹

B3: MpE4WT: wild-type Myzus persicae E4 α-carboxylesterase (SEQ ID NO:3) (protein, listed as Myzus persicae)
chain: MKNTCGILLNLFLFIGCFLTCSASNTPKVQVHSGEIAGGFEYTYNGRKIYSFLGIPYASPPVQNNRFKEPQPVQPWLGVWNATVPGSACLGIEFGSGSKIIGQEDCLFLNVYTPKLPQENSAGDLMNVIVHIHGGGYYFGEGILYGPHYLLDNNDFVYVSINYRLGVLGFASTGDGVLTGNNGLKDQVAALKWIQQNIVAFGGDPNSVTITGMSAGASSVHNHLISPMSKGLFNRAIIQSGSAFCHWSTAENVAQKTKYIANLMGCPTNNSVEIVECLRSRPAKAIAKSYLNFMPWRNFPFTPFGPTVEVAGYEKFLPDIPEKLVPHDIPVLISIAQDEGLIFSTFLGLENGFNELNNNWNEHLPHILDYNYTISNENLRFKTAQDIKEFYFGDKPISKETKSNLSKMISDRSFGYGTSKAAQHIAAKNTAPVYFYEFGYSGNYSYVAFFDPKSYSRGSSPTHGDETSYVLKMDGFYVYDNEEDRKMIKTMVNIWATFIKSGVPDTENSEIWLPVSKNLADPFRFTKITQQQTFEAREQSTTGIMNFGVAYH
Specificity Constant (kcat/Km) 1S cis αR deltamethrin [6]: 870 M⁻¹ s⁻¹
Specificity Constant (kcat/Km) 1S cis αS deltamethrin [6]: 550 M⁻¹ s⁻¹
Specificity Constant (kcat/Km) 1S/1R trans-permethrin [1]: 270 000 M^−1sec^−1
α-NA activity kcat/Km [3]: 89,000 M^−1sec^−1
Specificity Constant (kcat/Km) 1S/1R cis-permethrin [5]: 2 400 M^−1sec^−1
